Reference: PMC11984502, “A stress-responsive p38 signaling axis in choanoflagellates” (RSC Chemical Biology, 2025)
The entries are a selection whose mix differs from that of the whole data set. The numbers are fractions of the control, whatever unit the source prints.

These molecules were tested on S. rosetta (SrEpac culture). Settings: flow cytometry, 24 h, high-nutrient medium; 10 µM.
In the case of `Nc1nc(N)c2nc(-c3cccc(O)c3)cnc2n1` [TG100713], the “% viability” value was 1.681.
In the case of `CC(C)n1nc(-c2ccc3ccncc3c2)c2c(N)ncnc21` [KMS_134], the “% viability” value was 0.7219.
For `Nc1ccc(C(=O)Nc2cccc(-c3nc(N4CCOCC4)c4oc5ncccc5c4n3)c2)cn1` [YM201636], the “% viability” value was 0.922.
